Test results as given in US20250186633A1 (SERAC HEALTHCARE LTD, priority 2022, published 2025).

Experiment: general procedure: Fmoc solid-phase peptide synthesis; Rink Amide AM resin; HBTU (HATU for PEG unit)
Conditions: whole synthesis, scale 0.25 mmol

| Substance | crude mass [mg] |
| --- | --- |
| Disulfide [Cys^2-6] Thioether Cyclo[CH2CO-Lys(Chelator 1-Glutaryl)-Cys^2-Arg-Gly-Asp-Cys^6-Phe-Cys]-NH2 | 295 |
| Disulfide [Cys^2-6] Thioether Cyclo[CH2CO-Lys(Chelator 1-glutaryl)-Cys^2-Arg-Gly-Asp-Cys^6-Phe-Cys]-(PEG)3-NH2 | 322 |
